This is one part of the list. Calls are pooled over several reports, among them a noisy single-well screen.
What was measured:
Conditions in all cases: stereoisomer not certain
O52I2 = tested on: T1, O52I2
T1 sequence (whole entry): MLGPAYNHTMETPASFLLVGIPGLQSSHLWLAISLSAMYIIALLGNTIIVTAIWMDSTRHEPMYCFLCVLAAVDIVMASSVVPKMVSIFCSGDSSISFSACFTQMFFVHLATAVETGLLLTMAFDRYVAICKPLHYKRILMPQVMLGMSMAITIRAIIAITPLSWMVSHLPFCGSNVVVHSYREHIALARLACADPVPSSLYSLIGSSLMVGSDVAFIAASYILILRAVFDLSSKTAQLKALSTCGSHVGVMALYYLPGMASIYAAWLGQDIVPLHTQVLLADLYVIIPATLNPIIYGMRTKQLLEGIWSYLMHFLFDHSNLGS
Summary of the method: (§1)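 Values were gathered from published papers (main text and supplementary material), with extra details requested from the original authors when needed, and checked for typos and inconsistencies. Each receptor–molecule pair is called responsive (active) if the original authors judged the measured signal statistically different from baseline, and non-responsive (inactive) otherwise. Assay methods varied by source, often transient mammalian cell-line luciferase assays. Recorded details include cell line, G-protein, co-transfected protein and tags.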

O52J3 = tested on: T2, O52J3
T2 sequence (whole entry): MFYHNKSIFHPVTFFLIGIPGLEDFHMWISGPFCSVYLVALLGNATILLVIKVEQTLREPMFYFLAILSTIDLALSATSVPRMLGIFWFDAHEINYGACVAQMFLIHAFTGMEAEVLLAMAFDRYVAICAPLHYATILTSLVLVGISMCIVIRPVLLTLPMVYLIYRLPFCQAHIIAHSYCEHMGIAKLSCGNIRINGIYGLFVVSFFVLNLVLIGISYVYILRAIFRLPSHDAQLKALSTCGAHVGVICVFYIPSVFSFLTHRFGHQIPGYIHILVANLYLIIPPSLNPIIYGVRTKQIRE
Summary of the method: as §1

O52L1 = tested on: T3, O52L1
T3 sequence (whole entry): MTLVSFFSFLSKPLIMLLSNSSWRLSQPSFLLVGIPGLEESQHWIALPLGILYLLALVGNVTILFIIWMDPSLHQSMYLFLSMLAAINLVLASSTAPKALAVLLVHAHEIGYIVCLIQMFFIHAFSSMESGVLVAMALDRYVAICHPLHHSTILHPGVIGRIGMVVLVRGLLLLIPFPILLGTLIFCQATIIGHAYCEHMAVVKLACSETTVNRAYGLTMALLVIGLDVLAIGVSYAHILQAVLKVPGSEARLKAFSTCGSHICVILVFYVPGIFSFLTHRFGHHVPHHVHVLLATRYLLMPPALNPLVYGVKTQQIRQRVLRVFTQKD
Summary of the method: as §1

O52L2 = tested on: T4, O52L2
T4 sequence (whole entry): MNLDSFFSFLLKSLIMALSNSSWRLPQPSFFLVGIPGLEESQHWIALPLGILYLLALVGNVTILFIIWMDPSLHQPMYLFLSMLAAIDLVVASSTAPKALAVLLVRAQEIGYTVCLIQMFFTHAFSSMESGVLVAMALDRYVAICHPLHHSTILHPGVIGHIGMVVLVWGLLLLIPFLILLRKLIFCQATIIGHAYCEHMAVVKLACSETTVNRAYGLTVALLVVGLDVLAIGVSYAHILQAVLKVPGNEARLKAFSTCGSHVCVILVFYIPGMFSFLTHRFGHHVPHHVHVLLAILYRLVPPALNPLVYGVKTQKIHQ
Summary of the method: as §1

O52M1 = tested on: T5, O52M1
T5 sequence (whole entry): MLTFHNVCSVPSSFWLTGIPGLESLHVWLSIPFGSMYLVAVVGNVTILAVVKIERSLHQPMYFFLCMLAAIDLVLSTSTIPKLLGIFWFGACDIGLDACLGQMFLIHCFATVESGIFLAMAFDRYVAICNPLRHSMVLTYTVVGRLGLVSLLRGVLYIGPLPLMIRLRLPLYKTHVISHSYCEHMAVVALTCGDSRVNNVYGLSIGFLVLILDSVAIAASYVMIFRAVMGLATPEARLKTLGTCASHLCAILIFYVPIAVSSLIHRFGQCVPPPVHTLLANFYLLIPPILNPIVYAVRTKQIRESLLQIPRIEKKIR
Summary of the method: as §1

O52N1 = tested on: T6, O52N1
T6 sequence (whole entry): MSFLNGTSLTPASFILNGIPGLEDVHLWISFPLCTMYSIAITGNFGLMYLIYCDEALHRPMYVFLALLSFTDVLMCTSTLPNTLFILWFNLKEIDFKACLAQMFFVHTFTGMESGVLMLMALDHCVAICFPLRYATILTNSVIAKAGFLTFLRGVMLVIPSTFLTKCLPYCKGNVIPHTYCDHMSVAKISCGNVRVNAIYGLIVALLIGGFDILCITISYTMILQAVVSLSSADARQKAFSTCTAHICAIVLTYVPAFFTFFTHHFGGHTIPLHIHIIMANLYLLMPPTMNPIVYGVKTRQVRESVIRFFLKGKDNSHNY
Summary of the method: as §1

O52N2 = tested on: T7, O52N2
T7 sequence (whole entry): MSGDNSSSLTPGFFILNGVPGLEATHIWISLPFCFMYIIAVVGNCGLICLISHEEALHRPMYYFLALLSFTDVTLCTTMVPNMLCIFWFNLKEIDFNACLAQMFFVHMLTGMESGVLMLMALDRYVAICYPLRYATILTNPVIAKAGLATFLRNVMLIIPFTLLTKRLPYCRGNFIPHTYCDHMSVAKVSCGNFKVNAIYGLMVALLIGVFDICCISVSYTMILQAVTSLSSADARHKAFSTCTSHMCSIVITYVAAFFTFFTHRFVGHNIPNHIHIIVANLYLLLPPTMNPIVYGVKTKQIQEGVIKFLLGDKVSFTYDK
Summary of the method: as §1

O52N4 = tested on: T8, O52N4
T8 sequence (whole entry): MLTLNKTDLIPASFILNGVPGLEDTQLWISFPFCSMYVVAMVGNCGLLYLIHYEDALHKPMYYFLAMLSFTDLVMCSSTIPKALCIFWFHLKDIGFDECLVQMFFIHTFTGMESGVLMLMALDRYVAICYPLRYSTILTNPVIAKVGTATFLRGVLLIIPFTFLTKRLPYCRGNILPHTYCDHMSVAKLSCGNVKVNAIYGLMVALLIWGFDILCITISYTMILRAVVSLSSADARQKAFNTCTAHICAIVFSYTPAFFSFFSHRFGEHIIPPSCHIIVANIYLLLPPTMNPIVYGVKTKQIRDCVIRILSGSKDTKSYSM
Summary of the method: as §1

O52P1 = tested on: T9, O52P1
T9 sequence (whole entry): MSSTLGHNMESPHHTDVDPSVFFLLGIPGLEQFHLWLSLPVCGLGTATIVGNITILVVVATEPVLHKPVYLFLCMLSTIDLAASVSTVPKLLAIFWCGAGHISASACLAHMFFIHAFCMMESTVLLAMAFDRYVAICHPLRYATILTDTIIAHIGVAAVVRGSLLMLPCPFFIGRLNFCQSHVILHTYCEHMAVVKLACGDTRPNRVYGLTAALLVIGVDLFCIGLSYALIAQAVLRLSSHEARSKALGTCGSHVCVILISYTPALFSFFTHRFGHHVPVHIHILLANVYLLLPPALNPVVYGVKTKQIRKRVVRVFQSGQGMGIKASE
Summary of the method: as §1

O52R1 = tested on: T10, O52R1
T10 sequence (whole entry): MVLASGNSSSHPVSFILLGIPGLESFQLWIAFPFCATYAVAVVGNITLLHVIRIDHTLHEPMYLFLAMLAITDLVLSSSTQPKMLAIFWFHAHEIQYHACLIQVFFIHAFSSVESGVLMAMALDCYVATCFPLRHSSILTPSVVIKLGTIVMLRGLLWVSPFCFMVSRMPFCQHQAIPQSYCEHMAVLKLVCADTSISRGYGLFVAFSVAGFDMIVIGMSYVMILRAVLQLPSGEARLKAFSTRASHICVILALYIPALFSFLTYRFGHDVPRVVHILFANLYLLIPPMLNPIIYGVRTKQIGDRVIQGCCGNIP
Summary of the method: as §1

O52W1 = tested on: T11, O52W1
T11 sequence (whole entry): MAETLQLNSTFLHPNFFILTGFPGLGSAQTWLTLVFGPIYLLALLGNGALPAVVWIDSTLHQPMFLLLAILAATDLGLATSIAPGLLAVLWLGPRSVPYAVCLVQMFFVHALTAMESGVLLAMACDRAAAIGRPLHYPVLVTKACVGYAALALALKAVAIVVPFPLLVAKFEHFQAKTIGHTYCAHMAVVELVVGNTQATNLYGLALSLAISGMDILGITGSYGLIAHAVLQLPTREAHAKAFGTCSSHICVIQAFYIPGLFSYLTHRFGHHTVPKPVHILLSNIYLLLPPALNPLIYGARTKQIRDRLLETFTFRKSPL
Summary of the method: as §1

O56A3 = tested on: T12, O56A3
T12 sequence (whole entry): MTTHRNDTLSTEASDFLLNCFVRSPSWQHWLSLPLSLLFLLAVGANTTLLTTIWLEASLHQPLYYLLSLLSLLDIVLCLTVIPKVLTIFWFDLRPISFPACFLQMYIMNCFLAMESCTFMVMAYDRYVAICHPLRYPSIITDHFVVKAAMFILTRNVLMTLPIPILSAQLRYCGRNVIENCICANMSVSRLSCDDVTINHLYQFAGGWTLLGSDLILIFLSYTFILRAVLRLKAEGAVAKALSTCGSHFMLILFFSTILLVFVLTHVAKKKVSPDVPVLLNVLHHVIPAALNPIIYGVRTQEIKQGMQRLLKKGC
Summary of the method: as §1

O56B1 = tested on: T13, O56B1
T13 sequence (whole entry): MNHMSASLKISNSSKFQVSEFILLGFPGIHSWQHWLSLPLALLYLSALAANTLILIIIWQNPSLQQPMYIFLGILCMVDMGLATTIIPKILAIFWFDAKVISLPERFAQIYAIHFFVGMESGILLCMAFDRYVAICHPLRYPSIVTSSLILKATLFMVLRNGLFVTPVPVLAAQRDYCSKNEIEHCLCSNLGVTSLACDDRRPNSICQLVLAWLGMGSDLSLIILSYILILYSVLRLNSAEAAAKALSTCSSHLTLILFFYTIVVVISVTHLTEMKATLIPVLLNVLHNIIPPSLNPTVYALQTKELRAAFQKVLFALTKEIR
Summary of the method: as §1

O56B4 = tested on: T14, O56B4
T14 sequence (whole entry): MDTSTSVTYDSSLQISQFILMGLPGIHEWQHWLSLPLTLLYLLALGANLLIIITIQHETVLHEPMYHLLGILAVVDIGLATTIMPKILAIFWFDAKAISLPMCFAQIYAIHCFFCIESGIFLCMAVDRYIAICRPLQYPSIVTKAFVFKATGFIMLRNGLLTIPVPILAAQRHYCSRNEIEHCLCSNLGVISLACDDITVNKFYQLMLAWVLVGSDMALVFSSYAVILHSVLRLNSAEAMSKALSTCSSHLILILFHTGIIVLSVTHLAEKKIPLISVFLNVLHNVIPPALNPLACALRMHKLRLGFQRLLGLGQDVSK
Summary of the method: as §1

O5AC2 = tested on: T15, O5AC2
T15 sequence (whole entry): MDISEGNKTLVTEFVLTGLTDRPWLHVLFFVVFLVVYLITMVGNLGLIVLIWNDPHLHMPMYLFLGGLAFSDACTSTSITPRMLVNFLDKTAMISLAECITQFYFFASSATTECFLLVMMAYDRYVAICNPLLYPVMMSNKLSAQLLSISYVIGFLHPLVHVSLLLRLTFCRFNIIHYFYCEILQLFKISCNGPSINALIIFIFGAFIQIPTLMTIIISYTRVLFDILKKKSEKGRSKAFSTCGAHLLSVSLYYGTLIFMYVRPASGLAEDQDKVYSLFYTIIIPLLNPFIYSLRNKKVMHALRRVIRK
Summary of the method: as §1

O5AK2 = tested on: T16, O5AK2
T16 sequence (whole entry): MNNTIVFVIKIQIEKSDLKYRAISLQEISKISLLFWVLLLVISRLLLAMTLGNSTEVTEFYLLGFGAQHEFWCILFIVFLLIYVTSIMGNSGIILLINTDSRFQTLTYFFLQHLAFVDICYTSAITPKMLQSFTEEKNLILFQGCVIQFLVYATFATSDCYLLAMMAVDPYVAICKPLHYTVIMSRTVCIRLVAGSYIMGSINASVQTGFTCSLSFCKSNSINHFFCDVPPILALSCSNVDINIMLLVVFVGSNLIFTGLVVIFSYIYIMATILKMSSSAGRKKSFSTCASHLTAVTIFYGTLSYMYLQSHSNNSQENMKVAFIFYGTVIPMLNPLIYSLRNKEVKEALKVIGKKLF
Summary of the method: as §1

O5AK3 = tested on: T17, O5AK3
T17 sequence (whole entry): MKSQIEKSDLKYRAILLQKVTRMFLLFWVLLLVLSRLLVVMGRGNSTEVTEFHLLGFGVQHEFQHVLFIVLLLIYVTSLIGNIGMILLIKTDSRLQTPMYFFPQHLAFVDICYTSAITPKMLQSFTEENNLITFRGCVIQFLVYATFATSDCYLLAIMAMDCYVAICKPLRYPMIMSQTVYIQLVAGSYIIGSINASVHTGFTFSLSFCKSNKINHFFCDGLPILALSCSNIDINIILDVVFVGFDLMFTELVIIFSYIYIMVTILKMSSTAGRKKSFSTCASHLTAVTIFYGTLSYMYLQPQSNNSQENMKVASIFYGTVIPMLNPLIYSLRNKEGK
Summary of the method: as §1

Measured: odorant receptor agonist call

c1cnccn1
inactive: all assays above

CCC=CCCO
inactive: all assays above

O=C1CCCCC1
not listed: O52J3 | O52L1 | O52L2 | O52N2 | O52N4 | O52R1 | O52W1
inactive: all other assays above

O=C1CCCCCCCCCCCCCCO1
inactive: all assays above

CCCCCOC(C)=O
not listed: O52J3 | O52L1 | O52L2
inactive: all other assays above

CC(C)C(=O)O
inactive: all assays above

CCCCO
inactive: all assays above
